# Test results published in article PMC3282696 (PLoS ONE, 2012).
# Sequences of proteins named here, by UniProt entry; tags and fusion partners are left off.
# UniProt P01375, whole entry: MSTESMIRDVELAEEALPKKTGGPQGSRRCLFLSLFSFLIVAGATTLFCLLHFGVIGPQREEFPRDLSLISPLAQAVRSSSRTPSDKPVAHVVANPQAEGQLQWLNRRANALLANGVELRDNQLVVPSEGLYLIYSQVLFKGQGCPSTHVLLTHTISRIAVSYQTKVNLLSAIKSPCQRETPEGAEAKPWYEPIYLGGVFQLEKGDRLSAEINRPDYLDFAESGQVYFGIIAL
# B1: ubiquitin variant 10F (designed binder)
# chain: MQIFVFTYTGKTITLEVEPSDTIENVKARIQDKEGIPPDQQALEWAGKQLEDGRTLSNIQKESTLPLFLRLRGG
# notes: selected by ribosome display; Subcloned without Flag-tag into a modified pET-20b vector; Printed theoretical mass 9.9 kDa; source: E. coli BL21(DE3), purified (HisTrap IMAC, Superdex 75 SEC); 15N-labeled for NMR
# Molecular target: tumor necrosis factor (TNF)-alpha (human, UniProt P01375 1-233, Non-covalent homotrimer. Limits are not printed: mature soluble form taken from the SUMO-fusion production; the calculated complex mass of 62.0 kDa less 9.9 kDa for 10F gives about 17.4 kDa per subuni)
# Experiment: ITC; 10F (135 µM) injected into TNF-alpha (35.6 µM, per monomer), 25°C, PBS, 0.5 mM EDTA pH 7.4, 0.05% (v/v) Tween-20; single-site binding model
# Conditions: both partners purified
binder,measurement,value
B1,Kd,180 ± 50 nM
same,dH,-13.7 ± 0.598 kcal/mol
same,stoichiometry N,0.35 ± 0.04
